The data set concerns the target BrxR R47A (Acinetobacter sp. NEB394) (UniProt A0A7H8SL41). Nature of the data set: EMSA. Conditions: legend: significant reduction, text: site-specific binding eliminated; EMSA: 20 mM Tris pH 7.9, 40 mM NaCl, 2.5% sucrose, 22 C, 30 min; 20 nM DNA (10 nM in Fig S6), 25-800 nM BrxR; 7% native gel in TBE; recombinant protein; protein details: N-terminal His6 removed by thrombin. (A gel shift assay detects complexes by their altered migration in electrophoresis.)

The record followed here is publication PMC9122589.

The exact form of at least one protein or probe is not confirmed. Weaker means in comparison with the reference protein, sequence or condition of that experiment.

Regarding “GCGGAGTCCATCCAAACATCGGGAGATTTTGATCAGATATGTTTAACCTGCCCTCACAATACCGTAAAAATAATTTACTGTATATTCATTGTAGGGTAGTCTTGATCACATTGTTTATTGACCGATTGTTCTATGACAGCAGACAAGCATGAAGTGCTTCTCAGAATGAGGGCGATTGAGTTACTGGCCTACTGGGAAGGGCGTTTG (double strand) [BREX upstream region -109/+98 (~200 bp)]”, the binding result is “binds more weakly”.
